The assay is described as follows: qHTS Assay for Lipid Storage Modulators in Drosophila S3 Cells.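 For cell number change: cells counted by Cell Tracker Red CMTPX staining in the red channel.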 Particulars: BODIPY lipid droplet fluorescence, 18-24 h; for cell number change: measured here: cell count max response, cells fed with added oleic acid. The procedure, abridged: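 Drosophila S3 cells loaded with oleic acid (400 uM, as added) and compounds at several concentrations; lipid droplets imaged by 488-nm laser-scanning cytometry, 500–530 nm intensity and object ratio to cell channel. Percent activity normalized to 20 uM Triacsin C.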

Where [1] appears, read: measured here: cell number channel AC50, cells fed with added oleic acid.
Setting [2] is: measured here: lipid fluorescence (Fed channel) AC50, cells fed with added oleic acid.

Structures are written as SMILES. The list shows a part of the results. These are further read-outs of the screen, such as a control signal, another cell line or another target. No call is given for them. Compounds called inactive in the main read-out are mostly missing here. Potencies come from curve fits of mixed quality, noted in brackets.

For the compound `O=C1C(Cc2ccccc2)Nc2ncnc(N3CCc4ccccc4C3)c2N1Cc1ccc(Cl)cc1` (configuration not stated), the cell number change amounted to 8.25%. Further, under setting [1], the AC50 was 0.82 µM [rising, single point]. Further, under setting [2], the AC50 is 3.66 µM [rising, single point].
In the case of `N#CC(C#N)=Cc1cc2ccccc2nc1N1CCOCC1`, the cell number change is -19.4%. Moreover, the AC50 under setting [2] is 2.91 µM [rising, partial curve].
As for `COc1ccc(NC(=O)C2CCCN2S(=O)(=O)c2ccc3c(c2)CCC(=O)N3)cc1` (configuration not stated), the cell number change was -61.2%. Under setting [1], the AC50 is 29.1 µM [falling, single point]. Also, under setting [2], the AC50 was 6.51 µM [rising, single point].
Turning to `O=C(CCC(=O)c1cccs1)Nc1ccc(F)c(F)c1F`, the cell number change was 62.3%. Also, the AC50 under setting [1] is 29.1 µM [rising, single point]. Further, under setting [2], the AC50 is 29.1 µM [rising, single point].
With `O=C(Nc1ccc(Br)cc1)c1cccc(OC(=S)N2CCOCC2)c1`, the cell number change is -21.1%. In addition, the AC50 under setting [2] is 6.31 µM [rising, single point].
In the case of `O=C(NCC1OCCc2ccccc21)c1ccc(NC(=O)c2cccc(Br)c2)cc1` (configuration not stated), the cell number change is 5.44%. Under setting [2], the AC50 was 0.366 µM [rising, full curve, poor fit].
For the compound `CCN(CC)S(=O)(=O)c1cccc(NC(=O)C2SC(=Nc3ccc(C)cc3C)C(C(=O)NC(C)COC)=C2N)c1` (configuration not stated), the cell number change came to 9.41%.
On to `COc1cc2c3c(c1)c(C1=NC(=S)NC1=O)c(O)n3C(C)(C)C=C2C`, for which the cell number change turned out to be 4.66%. Further, the AC50 under setting [2] is 4.11 µM [falling, partial curve, poor fit].
For `O=C(COc1ccccc1C(=O)N/N=C\c1ccc(O)c(O)c1)N/N=C/c1ccc(O)c(O)c1`, the cell number change was -34.3%. The AC50 under setting [1] is 23.1 µM [falling, single point].
As to `Cc1ccc(O)c(C(=O)c2cnn(C(=O)Cc3csc(C)n3)c2)c1`, the cell number change came out at 10.7%. Under setting [2], the half-maximal activity concentration (AC50) is 0.82 µM [rising, single point].
For the compound `CCOc1ccc(NS(=O)(=O)c2ccc(C)c(C(=O)NCCCn3ccnc3)c2)cc1`, the AC50 is 0.366 µM [rising, partial curve] under setting [1] and 0.58 µM [rising, full curve] under setting [2].
With `CCCCn1c(N)c(N(CCOC)C(=O)COC(=O)COc2ccccc2C#N)c(=O)[nH]c1=O`, the AC50 under setting [2] was 29.1 µM [rising, single point].
As for `COc1ccc(NS(=O)(=O)c2ccc(N3CCOCC3)c(NC(=O)c3ccccc3Cl)c2)cc1`, the cell number change came out at 1.75%. Moreover, the AC50 under setting [2] is 1.84 µM [falling, partial curve, poor fit].
`O=C(O)C1(P(=O)(c2ccc(Cl)cc2)c2ccc(Cl)cc2)CCCC1`: the cell number change was 2.09%. Also, the AC50 under setting [1] was 2.31 µM [falling, partial curve]. For the same compound, the AC50 under setting [2] was 4.61 µM [falling, partial curve].
As for `CN(C)S(=O)(=O)c1cccc(NC(=O)COC(=O)c2cccc(S(=O)(=O)N3CCc4ccccc4C3)c2)c1`, the cell number change was -83.3%. Also, under setting [1], the AC50 was 16.4 µM [falling, single point].
Take `COc1ccc(C(=O)NC(=S)NCCO)cc1Br`: the cell number change stood at 0.697%. The AC50 under setting [2] was 29.1 µM [falling, single point].
As to `COc1ccc(CNC(=O)C2CCCN(S(=O)(=O)c3c(C)nn(C)c3C)C2)cc1` (configuration not stated), the cell number change worked out at 30.2%. The AC50 under setting [2] was 29.1 µM [rising, single point].
In the case of `O=C(O)c1ccc(-c2ccc(/C=N/Nc3ccc([N+](=O)[O-])cc3)o2)cc1`, the cell number change came out at 24%.
Regarding `O=C(Nc1ccc(S(=O)(=O)NCc2cccnc2)cc1)c1ccccc1Cl`, the cell number change was -15.6%. The AC50 under setting [2] is 29.1 µM [falling, single point].
Take `COc1cccc(/C=N/NC(=O)CSc2ccccc2C)c1OC`: the cell number change amounted to 39.8%. The AC50 under setting [1] was 29.1 µM [rising, single point]. In addition, under setting [2], the AC50 was 7.31 µM [rising, partial curve].
As for `CC(=O)Nc1ccc(NS(=O)(=O)c2ccccc2)cc1`, the cell number change was 0.679%. Besides, under setting [1], the AC50 is 0.13 µM [falling, full curve, poor fit]. Besides, under setting [2], the AC50 was 0.146 µM [falling, full curve, poor fit].
As for `O=C(N[C@@H](Cc1ccc(Br)cc1)C(=O)O)OCC1c2ccccc2-c2ccccc21`, the cell number change amounted to 18%.
For `COCCOC(=O)c1sc(=S)n(CCOC)c1N`, the cell number change is -35.3%. Moreover, under setting [1], the AC50 was 32.6 µM [falling, single point].
With `O=C(/C=C/c1c(F)cccc1Cl)NCc1ccco1`, the cell number change stood at 13.4%. Besides, the AC50 under setting [2] is 16.4 µM [rising, single point].
For `COc1ccc(/C=C/C(=O)c2ccc3c(c2)OCO3)cc1OC`, the cell number change was -14.1%.
For `C=CCn1c(C)cc(C(=O)CSc2nc3ccccc3[nH]2)c1C`, the cell number change was -25%. Under setting [2], the AC50 is 1.84 µM [rising, single point].
`COc1ccc(CCC(=O)OCC(=O)c2c(N)n(CC(C)C)c(=O)n(C)c2=O)cc1`: the cell number change was -1.74%. For the same compound, the AC50 under setting [1] is 4.11 µM [rising, single point]. Under setting [2], the half-maximal activity concentration (AC50) was 4.11 µM [falling, single point].
`O=C(CSc1nnnn1-c1cccnc1)Nc1ccc(OCc2ccccc2)cc1`: the cell number change was -37%. Moreover, the AC50 under setting [1] was 0.116 µM [falling, full curve, poor fit]. Further, the AC50 under setting [2] was 6.51 µM [falling, full curve, poor fit].
In the case of `Cc1ccc2[nH]c(=O)c(CN(CCCN3CCOCC3)C(=O)NC3CCCCC3)cc2c1`, the cell number change was -0.0124%.
Turning to `COc1cc(OC)c(/C=N/n2c(C)nnc2C)c(OC)c1`, the cell number change turned out to be 7.49%. In addition, the half-maximal activity concentration (AC50) under setting [2] is 14.6 µM [falling, single point].
`O=C(CN1CCOCC1)Nc1c2c(nc3ccccc13)N(Cc1ccccc1)CC2`: the AC50 under setting [2] is 1.64 µM [rising, partial curve].
Take `COc1ccc(Cn2c(C)ccc2C)cc1`: the cell number change was determined as 5.4%. Besides, the AC50 under setting [2] was 0.184 µM [rising, full curve].
For the compound `Cc1cccc(Nc2nc(N)c([N+](=O)[O-])c(NCc3ccccc3)n2)c1`, the cell number change was -42%. The concentration at half-maximal activity (AC50) under setting [1] was 29.1 µM [falling, single point].
Turning to `CCOC(=O)c1ccc(N2C(=O)CC(N3CCC(O)(c4ccc(Br)cc4)CC3)C2=O)cc1` (configuration not stated), the cell number change was -7.84%.
In the case of `Nc1nonc1-c1nc2ccccc2n1CC(=O)N/N=C\c1ccc(-c2ccc(Cl)cc2)o1`, the cell number change was -45.4%. Moreover, the AC50 under setting [1] was 2.31 µM [falling, full curve, poor fit].
Turning to `CC1CN(C(=O)/C(C#N)=C2\N=C(NC(=O)c3ccccc3Cl)c3ccccc32)CC(C)O1` (configuration not stated), the cell number change is 18.7%. For the same compound, the AC50 under setting [2] is 29.1 µM [rising, single point].

These data come from PubChem BioAssay AID2685 (National Center for Advancing Translational Sciences (NCATS), 2010).
